# Measurements published in patent US20020168389A1, “Stable skin conditioning compositions containing retinoid boosters” (priority 2000, published 2002).
# For at least one compound, name, drawing or mass did not settle the structure.
# Test system: Retinal Reductase
# Assay: Assay for Retinal Reductase Activity, rat liver microsomes (to identify B3)
# Type: biochemical
# Details: test compound final 100 μM
# Description: The resulting homogenate was successively centrifuged for 30 min. at 10,000 g, 30 min. at 20,000 g, and 15 min. at 30,000 g, and the resulting supernatant was ultracentrifuged for 80 min. at 105,000 g. […] Protein concentrations were determined as described above. […] All stock solution were prepared as above with the following substitutions: 10 mM all trans Retinaldehyde (Sigma R2500) in DMSO—instead of retinol. 200 mM, Nicotinamide adenine dinucleotide phosphate, reduced form, tetrasodium salt (NADPH) (Sigma N7505) in sterile water—instead of NADP. In a two-dram glass vial with screw cap, add the following in order: […] 25 μl diluted Microsomes (final=100 μg)—use boiled Microsomes for controls and regular Microsomes for test samples. […] 3 μl of 10 mM retinaldehyde (final=75 μM) Follow the same incubation and extraction procedure as detailed above. […] Aliquots of 60 μL were injected immediately and analyzed for retinoid content. The chromatography instrumentation consisted of a Waters 600 gradient controller/pump, a Waters 996 Photodiode Array detector and a Waters 474 Scanning Fluorescence detector. Two HPLC protocols were used for retinoid analysis. […] The eluate was monitored for absorbance at 325 nm and fluorescence at 325 ex/480 em. […] B. Barua, “Analysis of Water-Soluble Compounds: Glucuronides”, Methods Enzymol. 189, 136-145 (1990). […]
compound,measurement,value
"COc1cc(NS(C)(=O)=O)ccc1Nc1c2ccccc2nc2ccccc12 [Amsacrine, reference compound]",% lnhibition Retinal Reductase,22% +/8
